The full ranking holds about 33,000 sequences; the median of “E-score (-0.5 to 0.5)” is about -8e-05, and the highest 2% start at about 0.23. The list shows a part of the results.
target: T1, Nrg2 (UniProt P38082); test: PBM E-score (8-mer binding enrichment) (E-score (-0.5 to 0.5)); higher = stronger / more preferred TF binding; conditions: protein concentration: 100 nM; construct: GST-full length
T1 sequence: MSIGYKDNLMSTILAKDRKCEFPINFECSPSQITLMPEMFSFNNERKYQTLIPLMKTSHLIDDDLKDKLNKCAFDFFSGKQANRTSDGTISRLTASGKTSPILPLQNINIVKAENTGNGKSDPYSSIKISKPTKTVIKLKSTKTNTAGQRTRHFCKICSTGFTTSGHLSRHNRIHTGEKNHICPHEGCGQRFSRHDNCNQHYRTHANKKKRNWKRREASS
Protocol: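 Universal 'all 10-mer' protein binding microarrays (Agilent AMADID 015681) probed with GST-tagged S. cerevisiae TFs (full-length or DBD) made by in vitro transcription/translation (PURExpress), about 100-200 nM. Bound TF was detected with fluorescent anti-GST. Each ungapped 8-mer (which stands for itself and its reverse complement) is scored by the PBM enrichment score (E-score), a modified Wilcoxon-Mann-Whitney statistic from -0.5 to +0.5, computed with the Universal PBM Analysis Suite. Scale: above 0.35 generally sequence-specific binding.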

Sequence | PBM E-score
CGATAGTA | 0.0552
CTACATGA | -0.105
CTGTTTGC | 0.0699
TAGCGCGA | 0.175
AGGCCACG | -0.0484
CGATTGAA | -0.0793
AGATAGCA | 0.0387
ACGTGTTA | 0.154
AGCGTTAA | -0.144
AGAAGGAA | -0.216
ATTGTTCA | 0.13
GACTTTAC | 0.0182
CTAGGCGA | -0.0634
ACGGGAAC | -0.036
ACTGAGTG | -0.127
GAAGTGTC | 0.039
AGGTTTCA | 0.111
ACTAAGCA | -0.0896
CCTGCTGC | 0.029
AATCACTC | 0.0286
CATTCTAA | -0.0137
ATCAGAGA | -0.0362
ACGCACCA | -0.0635
TACTATCA | 0.0993
GGGGCAGA | -0.0267

Sequence | PBM E-score
GTTTCGCA | -0.144
CATATACC | -0.16
ACCCGCGT | -0.119
GGTGCTCA | -0.115
CGGACCGC | -0.067
AATCTAGA | -0.11
AGAAGCAC | -0.153
ATCTAACG | 0.0144
AGTAGGAC | 0.0513
ACTGATAG | -0.0128
ACGTTAAG | -0.0628
TGCCACCA | -0.25
CGGATACC | 0.101
ACCTAAGC | 0.0203
CGTTCTCC | 0.0223
AGATCAGA | 0.111
ACGTCCAC | -0.163
AGCCACCC | -0.314
ACCGAAAT | 0.0426
AGCAGTCG | -0.0198
AAAGGTAT | 0.0476
AGCATAAA | -0.0339
GAACCAAA | 0.0228
GCTGCGCC | -0.126
CAACTAAG | 0.0881

An excerpt of these results, with tabs.
Sequence	PBM E-score
CGGACCGC	-0.067
ATCTAACG	0.0144
ACGTTAAG	-0.0628
CGGATACC	0.101
GAACCAAA	0.0228
GCTGCGCC	-0.126

Remaining list, next part:

Sequence | PBM E-score
CAAGTCTC | -0.299
CAGCTGCA | -0.00861
AGCCCTTC | -0.224
TTACGTAA | -0.134
ACAAACAG | 0.196
TCTGGGCA | -0.144
AGCCGACT | -0.111
CCCGGCCA | -0.294
CGCGCCGA | 0.0262
TGAAGACA | -0.0868
GATAAGAA | 0.0876
CGAGCATC | 0.0374
AGCCGTAC | -0.00653
AGAACGAA | 0.179
CATATTTA | 0.18
GCCCTAGC | -0.102
GCGGTCAA | -0.0725
CCGCGGTC | 0.01
AAGATAAT | 0.127
GTCTAGCA | 0.00493
TTTGCAAA | 0.0147
TCACGTCA | 0.0171
GAAGTGCA | 0.135
AGTGGGGC | -0.187
TAAAGTGA | 0.0467

4 neighbouring records from above:
Sequence | PBM E-score
TTACGTAA | -0.134
ACAAACAG | 0.196
TCTGGGCA | -0.144
AGCCGACT | -0.111

Next records:

Sequence | PBM E-score
ACTCCAAG | -0.0518
ACGGTAAA | -0.0106
GAGTTGCC | 0.0538
ACCCTTGA | 0.242
ACAGTGTA | 0.0441
ACAATGCG | 0.191
AGCTAGTC | -0.0122
CATCTCGC | 0.0179
ACCTGCAG | -0.0488
AACTGTCA | -0.0456
AGTTGCGA | 0.218
CCCTCGAG | 0.143
AAGACGTC | -0.0365
CCTATGAG | -0.0467
AAAAACGC | 0.0582
AGAGCGAC | -0.0893
AGATGACG | 0.0118
AACACTCT | -0.06
CCCTGCGG | 0.0459
AAAAGTGG | 0.202
ACAATGTC | 0.107
AGTACTAT | 0.00892
CCAAATGC | 0.133
ACTATGCC | 0.125
ATTACTCA | 0.102

Sequence | PBM E-score
TCGGGTCA | 0.102
CGCTATAA | -0.0237
AAGCGTGT | -0.303
AGTTGTTA | 0.101
ATCCGCCG | 0.188
AGCCAGTG | -0.21
AGTTAACC | 0.15
AGGAGCAT | -0.0904
AATACATT | 0.114
CGAGACGC | 0.0527
CGCATAGA | 0.168
CACTTGAA | 0.0506
TCTTAACA | 0.0176
AAACGCTT | -0.125
ATAGAGAA | 0.0211
CCCGATGA | 0.142
TATGGCGA | -0.0815
ACAGGCAC | -0.126
CAGTCAAA | -0.229
ACTCTGAA | 0.0654
AATACCGA | -0.16
CTAATCGA | 0.131
CGTGACTA | 0.00642
CAATGCAG | 0.00706
CTTACAGA | 0.0133

Sequence | PBM E-score
AGCGCAGC | -0.153
AGATAAGA | 0.116
AGATACCG | -0.107
ACGTAGGC | -0.226
GGCGTTAC | -0.144
ACCTTAGG | -0.191
CCGTCACA | -0.135
TACTTTCA | 0.0426
ACGAAGGG | -0.0423
CTTACATA | -0.0597
CAATCGTC | -0.0499
AACCTATC | 0.0325
AAAGCTCT | -0.282
AGCGGAGG | -0.24
CTTGGCTC | -0.055
AGCTTGAC | -0.141
CCCCCTTA | -0.156
GAATCACA | 0.103
AGTGACAC | -0.00081
AATCTACA | 0.155
CCCTACTC | 0.0197
CGCTTAAC | -0.0286
CAGACGAG | 0.0528
CCGCGCAG | 0.0598
CCGTATCG | -0.115

Sequence | PBM E-score
GGGCCACA | -0.0333
ATTCGCGC | 0.159
CCGTCGTC | -0.0166
ATTGAATG | 0.0439
GACCGATC | -0.0307
GTGTTGAA | -0.0238
AAGGTCCA | 0.073
GGGCCCCA | 0.00797
CATAGGTC | -0.0159
AGAAGCCC | -0.0779
CGCAGACG | 0.0706
AGTCCTCA | 0.015
ATCCTGCA | 0.117
CAAGTACG | -0.275
TTGGTAAA | -0.0882
GAATCGCC | -0.0857
CCCGTGAA | 0.0306
AGGCTTCC | 0.0147
AGGAGGCA | -0.179
CGGATGTA | -0.0978
TGATCTAA | -0.0382
GTAGAAAA | -0.0337

— the supplement of paper PMC3334620
